Test results from patent US20230201221A1, “USE OF TERPENOIDS IN THE TREATMENT OR PREVENTION OF FIBROTIC DISEASES” (ARJIL BIOTECH HOLDING COMPANY LIMITED, priority 2020, published 2023).
For at least one compound, name, drawing or mass did not settle the structure.

Tested on: MPO
Assay: Bleomycin-induced pulmonary fibrosis in mice: lung myeloperoxidase (MPO) assay
Format: in vivo
Settings: compared with BLM group, p<0.001
Procedure: Mice were divided into fifth groups with 5 animals per group according to body weight: control group, BLM group, BLM+DEX group (7.5 mg/kg), BLM+ACH dosage group (50 mg/kg), and BLM+ACM dosage group (25 mg/kg), BLM+ACH dosage group (50 mg/kg), and BLM+ACM dosage group (25 mg/kg) BLM+AH dosage group (50 mg/kg), and BLM+AM dosage group (25 mg/kg) BLM+BH dosage group (50 mg/kg), and BLM+BM dosage group (25 mg/kg) BLM+CH dosage group (50 mg/kg), and BLM+CM dosage group (25 mg/kg) BLM+DH dosage group (50 mg/kg), and BLM+DM dosage group (25 mg/kg) BLM+EH dosage group (50 mg/kg), and BLM+EM dosage group (25 mg/kg) BLM. Pulmonary fibrosis (PF) was established in mice via a single intratracheal administration of BLM at 7.5 mg/kg mg/kg body weight. Different doses of samples were intragastrically administered daily for 21 days after BLM injury, and DEX was used as the positive control. Control and model groups received an equal volume of vehicle (0.9% NaCl) using the same schedule and route of administration.
The pulmonary MPO activity was a reliable index for estimating the infiltration of inflammatory cells in lungs. The lung tissues were homogenized and the MPO levels were detected with the kits according to manufacturer's instruction.

C[C@@H]1C[C@H]2[C@@H]3CCC4=CC(=O)C=C[C@]4(C)[C@@]3(F)[C@@H](O)C[C@]2(C)[C@@]1(O)C(=O)CO [DEX, Dexamethasone, reference compound]
lung MPO activity: evidently suppressed the MPO activities
